Where a SMILES comes first, the peptide text is derived from it.
Tested on: hypoxic primary rat fibroblasts
Experiment: Phosphoproteomics (LC-MS/MS) and pathway analysis under chronic hypoxia
Type: cell-based
Conditions: 1 mM, 10 mM and 100 mM pooled
Description: In order to mimic the hypoxic micro-environment, primary rat fibroblasts were exposed to hypoxia. Cells were exposed to 2 separate conditions—continuous and episodic hypoxia. For continuous hypoxia, cells were incubated in a hypoxic chamber (2% 02) for 48 h and treated with or without L-alanyl-L-glutamine and no restoration to normoxia as shown in FIG. 1C. Cells were collected and processed for experiments subsequently.
Following fibroblast isolation from sciatic nerves of rats, (8E10 primary fibroblasts) were lysed in 80 ul of 8M Urea, 0.1M ammonium bicarbonate, phosphatase inhibitors (Sigma P5726&P0044) by sonication (Bioruptor, 10 cycles, 30 seconds on/off, Diagenode, Belgium) and proteins were digested as described previously (PMID:27345528). Shortly, proteins were reduced with 5 mM TCEP for 60 min at 37° C. and alkylated with 10 mM chloroacetamide for 30 min at 37° C. After diluting samples with 100 mM ammonium bicarbonate buffer to a final urea concentration of 1.6M, proteins were digested by incubation with sequencing-grade modified trypsin (1/50, w/w; Promega, Madison, Wisconsin) for 12 h at 37° C. After acidification using 5% TFA, peptides were desalted using C18 reverse-phase spin columns (Macrospin, Harvard Apparatus) according to the manufacturer's instructions, dried under vacuum and stored at −20° C. until further use.
Peptide samples were enriched for phosphorylated peptides using Fe(III)-IMAC cartridges on an AssayMAP Bravo platform as recently described (PMID: 28107008). Phospho-enriched peptides were resuspended in 0.1% aqueous formic acid and subjected to LC-MS/MS analysis using a Q-Exactive plus mass spectrometer fitted with an EASY-nLC 1000 (both Thermo Fisher Scientific) and a custom-made column heater set to 60° C. Peptides were resolved using a RP-HPLC column (75 μm×30 cm) packed in-house with C18 resin (ReproSil-Pur C18-AQ, 1.9 μm resin; Dr. Maisch GmbH) at a flow rate of 0.2 μL/min. […]

C[C@H](N)C(=O)N[C@@H](CCC(N)=O)C(=O)O [L-alanyl-L-glutamine] (H-Ala-Gln-OH)
proteins significantly regulated vs 0 mM hypoxic samples (of 5110 proteins profiled): 1322 | proteins significantly downregulated (out of 1322): 607 | proteins significantly upregulated (out of 1322): 715
